Laboratory results from article PMC5910400.
Results are given in words; binding and its absence hold for the method and conditions named. Where a sequence is shown, tags or fusion partners need not be part of it.

Amino acid sequences for entries named in this document (tags omitted). Residues count along the entry.
UniProt P48061, residues 22-93: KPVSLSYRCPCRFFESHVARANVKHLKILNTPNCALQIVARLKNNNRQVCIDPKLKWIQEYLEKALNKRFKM

Biological target: T1, P1156 (evasin from Ixodes ricinus), purified, C-terminal StrepII:His tag (Ixodes ricinus) (UniProt V5HBW0)
T1 sequence: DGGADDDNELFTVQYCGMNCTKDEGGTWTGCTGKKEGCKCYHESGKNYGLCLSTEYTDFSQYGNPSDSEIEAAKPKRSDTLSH
Assay: BLI; cross-binding screen; His-tagged evasin immobilised on Ni-NTA biosensors (OctetRed); 300 nM chemokine; 30 °C; 10 mM Na2HPO4, 1.8 mM KH2PO4, 2.7 mM KCl, 500 mM NaCl, 0.1% BSA, 0.002% TWEEN-20, pH 7.4; single experiment; both purified

CXCL12 (from UniProt P48061 22-93) (ligand)
binding: no binding (tested: 300 nM)
